# Data as given in the supplement of paper PMC8728848.
# The other results are listed elsewhere or left out.
# B1: Epa8 (Candida glabrata) (protein)
# chain: MGSSHHHHHHSSGLVPRGSHMASSRALSDYPLGCSPLLGTKLTPGLSMELYEYPLDNHGIGPHCWDPAYLNPEYPRTGFESHKLIGTAQNVMSLNFEHRTQDCHVEFSNLPASFNFPDQITLTNFTMLLYGYFKPKESGRYRFHMEADDLLLMNLGAGNAFDCCAHEATRNNLGDYIAYDIWAGTRKDVEVFLEKEVFYPLRLFFNNRDGRAALDFSYYLNGATEPGTDIPELLFSLPDGESCPAYI
# Columns and labels:
# Experiment in all cases: glycan array binding signal (z-score within array); higher = stronger binding
# Conditions in all cases: glycan notation: IUPAC condensed, linker removed
# GlcNAc(b1-3)GalNAc = target: GlcNAc(b1-3)GalNAc
# Method in brief: (§1)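 Glycan array data were curated from 3228 arrays in the Consortium for Functional Glycomics database and kept only where the protein sequence was available. Glycan names were converted to IUPAC-condensed notation, and columns mapping to the same glycan were averaged. The binding signal is a within-array Z-score, averaged across arrays of the same protein sequence at different concentrations or buffers and across linkers. Negative Z-scores can be read as non-binding.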
# GlcNAc(b1-3)Man = target: GlcNAc(b1-3)Man
# Method in brief: as §1
# [1] = target: GlcNAc(b1-3)[GlcNAc(b1-4)][GlcNAc(b1-6)]GlcNAc
# Method in brief: as §1
# [2] = target: GlcNAc(b1-3)[GlcNAc(b1-6)]Gal(b1-4)GlcNAc
# Method in brief: as §1
# [3] = target: GlcNAc(b1-3)[GlcNAc(b1-6)]GalNAc
# Method in brief: as §1
# [4] = target: GlcNAc(b1-4)Gal(b1-4)GlcNAc
# Method in brief: as §1
# GlcNAc(b1-4)GlcNAc = target: GlcNAc(b1-4)GlcNAc
# Method in brief: as §1
# [5] = target: GlcNAc(b1-4)GlcNAc(b1-4)GlcNAc
# Method in brief: as §1
# [6] = target: GlcNAc(b1-4)GlcNAc(b1-4)GlcNAc(b1-4)GlcNAc(b1-4)GlcNAc
# Method in brief: as §1
# [7] = target: GlcNAc(b1-4)GlcNAc(b1-4)GlcNAc(b1-4)GlcNAc(b1-4)GlcNAc(b1-4)GlcNAc
# Method in brief: as §1
# [8] = target: GlcNAc(b1-4)[GlcNAc(b1-6)]GalNAc
# Method in brief: as §1
# [9] = target: GlcNAc(b1-6)Gal(b1-4)GlcNAc
# Method in brief: as §1
# GlcNAc(b1-6)GalNAc = target: GlcNAc(b1-6)GalNAc
# Method in brief: as §1
# [10] = target: GlcNAc6S(b1-3)Gal(b1-4)GlcNAc
# Method in brief: as §1
# Kdn(a2-3)Gal(b1-3)GalNAc = target: Kdn(a2-3)Gal(b1-3)GalNAc
# Method in brief: as §1
# Kdn(a2-3)Gal(b1-3)GlcNAc = target: Kdn(a2-3)Gal(b1-3)GlcNAc
# Method in brief: as §1
# Kdn(a2-3)Gal(b1-4)Glc = target: Kdn(a2-3)Gal(b1-4)Glc
# Method in brief: as §1
# Kdn(a2-3)Gal(b1-4)GlcNAc = target: Kdn(a2-3)Gal(b1-4)GlcNAc
# Method in brief: as §1
# [11] = target: Kdn(a2-3)Gal(b1-4)[Fuc(a1-3)]GlcNAc
# Method in brief: as §1
# Kdn(a2-6)Gal(b1-4)GlcNAc = target: Kdn(a2-6)Gal(b1-4)GlcNAc
# Method in brief: as §1
# [12] = target: Man(a1-2)Man(a1-2)Man(a1-3)Man
# Method in brief: as §1
# [13] = target: Man(a1-2)Man(a1-2)Man(a1-6)[Man(a1-3)]Man
# Method in brief: as §1
# Man(a1-2)Man(a1-3)Man = target: Man(a1-2)Man(a1-3)Man
# Method in brief: as §1
# [14] = target: Man(a1-2)Man(a1-3)[Man(a1-2)Man(a1-6)]Man
# Method in brief: as §1
# [15] = target: Man(a1-2)Man(a1-3)[Man(a1-2)Man(a1-6)]Man(a1-6)[Man(a1-2)Man(a1-2)Man(a1-3)]Man
# Method in brief: as §1
# [16] = target: Man(a1-2)Man(a1-3)[Man(a1-2)Man(a1-6)]Man(a1-6)[Man(a1-2)Man(a1-2)Man(a1-3)]Man(b1-4)GlcNAc(b1-4)GlcNAc
# Method in brief: as §1
# [17] = target: Man(a1-2)Man(a1-3)[Man(a1-6)]Man(a1-6)[Man(a1-2)Man(a1-3)]Man(b1-4)GlcNAc(b1-4)GlcNAc
# Method in brief: as §1
# [18] = target: Man(a1-2)Man(a1-6)[Man(a1-3)]Man(a1-6)[Man(a1-2)Man(a1-2)Man(a1-3)]Man
# Method in brief: as §1
# [19] = target: Man(a1-2)Man(a1-6)[Man(a1-3)]Man(a1-6)[Man(a1-2)Man(a1-2)Man(a1-3)]Man(b1-4)GlcNAc(b1-4)GlcNAc
# Method in brief: as §1
# Man(a1-3)[Man(a1-6)]Man = target: Man(a1-3)[Man(a1-6)]Man
# Method in brief: as §1
# [20] = target: Man(a1-3)[Man(a1-6)]Man(a1-6)[Man(a1-2)Man(a1-3)]Man(b1-4)GlcNAc(b1-4)GlcNAc
# Method in brief: as §1
# [21] = target: Man(a1-3)[Man(a1-6)]Man(a1-6)[Man(a1-3)]Man
# Method in brief: as §1
# [22] = target: Man(a1-3)[Man(a1-6)]Man(a1-6)[Man(a1-3)]Man(b1-4)GlcNAc(b1-4)GlcNAc
# Method in brief: as §1
# [23] = target: Man(a1-3)[Man(a1-6)]Man(b1-4)GlcNAc(b1-4)GlcNAc
# Method in brief: as §1
# [24] = target: Man(a1-3)[Man(a1-6)]Man(b1-4)GlcNAc(b1-4)[Fuc(a1-6)]GlcNAc
# Method in brief: as §1
# Man(a1-6)Man = target: Man(a1-6)Man
# Method in brief: as §1
# Man(b1-4)GlcNAc = target: Man(b1-4)GlcNAc
# Method in brief: as §1
# MurNAc(b1-4)GlcNAc = target: MurNAc(b1-4)GlcNAc
# Method in brief: as §1
binder,measurement,setting,value
B1,glycan array binding signal (z-score),GlcNAc(b1-3)GalNAc,-0.661
same,glycan array binding signal (z-score),GlcNAc(b1-3)Man,0.325
same,glycan array binding signal (z-score),[1],-0.13
same,glycan array binding signal (z-score),[2],0.492
same,glycan array binding signal (z-score),[3],-0.694
same,glycan array binding signal (z-score),[4],0.746
same,glycan array binding signal (z-score),GlcNAc(b1-4)GlcNAc,0.067
same,glycan array binding signal (z-score),[5],-0.364
same,glycan array binding signal (z-score),[6],-0.17
same,glycan array binding signal (z-score),[7],-0.995
same,glycan array binding signal (z-score),[8],-0.496
same,glycan array binding signal (z-score),[9],0.344
same,glycan array binding signal (z-score),GlcNAc(b1-6)GalNAc,-0.238
same,glycan array binding signal (z-score),[10],0.179
same,glycan array binding signal (z-score),Kdn(a2-3)Gal(b1-3)GalNAc,1.26
same,glycan array binding signal (z-score),Kdn(a2-3)Gal(b1-3)GlcNAc,0.921
same,glycan array binding signal (z-score),Kdn(a2-3)Gal(b1-4)Glc,-0.52
same,glycan array binding signal (z-score),Kdn(a2-3)Gal(b1-4)GlcNAc,-0.636
same,glycan array binding signal (z-score),[11],0.498
same,glycan array binding signal (z-score),Kdn(a2-6)Gal(b1-4)GlcNAc,0.143
same,glycan array binding signal (z-score),[12],-0.518
same,glycan array binding signal (z-score),[13],0.082
same,glycan array binding signal (z-score),Man(a1-2)Man(a1-3)Man,-0.876
same,glycan array binding signal (z-score),[14],-0.246
same,glycan array binding signal (z-score),[15],-0.416
same,glycan array binding signal (z-score),[16],-0.901
same,glycan array binding signal (z-score),[17],-0.502
same,glycan array binding signal (z-score),[18],-0.553
same,glycan array binding signal (z-score),[19],0.309
same,glycan array binding signal (z-score),Man(a1-3)[Man(a1-6)]Man,0.062
same,glycan array binding signal (z-score),[20],0.887
same,glycan array binding signal (z-score),[21],0.355
same,glycan array binding signal (z-score),[22],-0.145
same,glycan array binding signal (z-score),[23],-0.093
same,glycan array binding signal (z-score),[24],2.33
same,glycan array binding signal (z-score),Man(a1-6)Man,0.434
same,glycan array binding signal (z-score),Man(b1-4)GlcNAc,0.737
same,glycan array binding signal (z-score),MurNAc(b1-4)GlcNAc,-0.255

# 2 neighbouring entries from above, for reference:
binder,measurement,setting,value
B1,glycan array binding signal (z-score),[5],-0.364
same,glycan array binding signal (z-score),[6],-0.17
